This note sets out measurements from PubChem BioAssay AID328 (DTP/NCI, 2004).

The list shows only some results of the screen, not a fair sample: it gathers tests that were run many times, whatever their T/C, doses with no T/C, and many T/C values between a quarter and a half above the control. Other doses and runs of a compound stand elsewhere. T/C is the treated group as % of the vehicle group. Some doses have a count of surviving animals in place of a T/C: the source holds a T/C of zero for them, seemingly a mark for toxic or unscored doses. Some survivor counts are full or nearly so, which does not show that the dose was tolerated: the source hardly ever lists a survival T/C far under the control, and the zero likely stands for such cases as well. Counts of survivors are from the toxicity check (mostly the fifth day) where no day follows; animals may have died later. Schedules are NCI's codes, read here as Q, the interval in days (D) or hours (H), X, the number of doses. Some entries hold several experiments; the values are given in rising order. For survival time, this PubChem deposit counts one and a half times the control or more as active, and values a quarter to a half above the control carry no call in these data; other NCI protocols may use other cut-offs. Some T/C values are followed by the survivors on the day toxicity was checked, most often the fifth; without a count, all were alive then.

For the assay, the system named is BDF1 mice, P388 leukemia ip, median survival T/C. The assay is described as follows: NCI In Vivo Anticancer Drug Screen. Data for tumor model P388 Leukemia (intraperitoneal) in B6D2F1 (BDF1) mice. The settings on record: T/C endpoint: median survival time, higher T/C = longer survival. In outline:
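T/C = treated-group survival ÷ vehicle-control survival; tumour transplanted into mice before dosing.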

The mark [1] stands for this setting: dose: 200.0 mg/kg/injection, schedule: Q01DX009 (ip), vehicle: saline with Tween-80.
The mark [2] stands for this setting: dose: 400.0 mg/kg/injection, schedule: Q01DX009 (ip), vehicle: saline with Tween-80.
Setting [3] is: dose: 12.5 mg/kg/injection, schedule: Q01DX009 (ip), vehicle: saline with Tween-80.
[4] abbreviates: dose: 6.25 mg/kg/injection, schedule: Q01DX009 (ip), vehicle: saline.
The mark [5] stands for this setting: dose: 12.5 mg/kg/injection, schedule: Q01DX009 (ip), vehicle: saline.
Where [6] appears, read: dose: 25.0 mg/kg/injection, schedule: Q01DX009 (ip), vehicle: saline.
Setting [7] is: dose: 50.0 mg/kg/injection, schedule: Q01DX009 (ip), vehicle: saline.
Setting [8] is: dose: 3.12 mg/kg/injection, schedule: Q01DX009 (ip), vehicle: saline.
Where [9] appears, read: dose: 25.0 mg/kg/injection, schedule: Q01DX009 (ip), vehicle: saline with Tween-80.

Take `CCCCCCCCCCCCCC(=O)O[C@@H]1[C@@H](C)[C@@]2(O)[C@@H](C=C(CO)C[C@]3(O)C(=O)C(C)=C[C@@H]23)[C@@H]2C(C)(C)[C@]12OC(C)=O`: the T/C is 126 % of control (dose: 1.0 mg/kg/injection, schedule: Q01DX009 (ip), vehicle: saline + alcohol); 126 % of control (dose: 6.2 micrograms/kg/injection, schedule: Q01DX009 (ip), vehicle: gum acacia); 135 % of control (dose: 12.5 micrograms/kg/injection, schedule: Q01DX009 (ip), vehicle: gum acacia); 126 % of control (dose: 100.0 micrograms/kg/injection, schedule: Q01DX009 (ip), vehicle: gum acacia); 140 % of control (dose: 400.0 micrograms/kg/injection, schedule: Q01DX009 (ip), vehicle: gum acacia).

Regarding `CC(=Nc1ccccc1)C1=C(O)C(Cc2ccc(O)cc2)NC1=O` (stereo unspecified), the survivor count under setting [1] is recorded as 6 of 6 and the survivor count under setting [2] is on record as 1 of 6.

For the compound `O=CN(c1ccccc1)c1ccccc1`, the T/C by setting is: (dose: 265.0 mg/kg/injection, schedule: Q04DX003 (ip), vehicle: saline with Tween-80) 125 % of control; (dose: 400.0 mg/kg/injection, schedule: Q04DX003 (ip), vehicle: other) 141 % of control [5 of 6 alive].

Consider `C=CCC(CC)(C(=O)O)C(=O)O`, for which the survivor count (dose: 200.0 mg/kg/injection, schedule: Q01DX009 (ip), vehicle: saline) was 3 of 6.

Regarding `CSC(=S)NN=C(C)C`, the survivor count is listed as 6 of 6 (dose: 6.25 mg/kg/injection, schedule: Q01DX009 (ip), vehicle: saline with Tween-80) and 1 of 6 under setting [3].

As for `C=C(C)C(O)C(O)c1cc2ccc(=O)oc2cc1OC` (stereo unspecified), the survivor count (dose: 35.0 mg/kg/injection, schedule: Q01DX009 (ip), vehicle: carboxymethylcellulose (CMC)) is recorded as 6 of 6.

Take `CC[C@@]1(O)C(=O)OCc2c1cc1n(c2=O)Cc2cc3ccccc3nc2-1`: under “dose: 1.6 mg/kg/injection, schedule: Q04DX003 (ip), vehicle: saline with Tween-80”, the T/C was 138 % of control. Besides, the survivor count is on record as 6 of 6 under setting [4], 6 of 6 under setting [5], 0 of 6 under setting [6] and 0 of 6 under setting [7].

On to `CSCCC(NC(C)=O)C(=O)O` (stereo unspecified), for which, under “dose: 400.0 mg/kg/injection, schedule: Q01DX009 (ip), vehicle: saline”, the survivor count is 6 of 6.

Consider `COC(=O)CC(C)Cc1ccc(OC)c(OC)c1` (stereo unspecified), for which the T/C under setting [2] is 125 % of control.

As for `CCCC[P+](c1ccccc1)(c1ccccc1)c1ccccc1`, the T/C runs as follows: (dose: 1.25 mg/kg/injection, schedule: Q01DX009 (ip), vehicle: saline) 144 % of control; (dose: 2.5 mg/kg/injection, schedule: Q01DX009 (ip), vehicle: saline) 125 % of control; (dose: 5.0 mg/kg/injection, schedule: Q01DX009 (ip), vehicle: saline) 138 % of control; (dose: 10.0 mg/kg/injection, schedule: Q01DX009 (ip), vehicle: saline) 130 [5 of 6 alive] and 131 % of control; (dose: 20.0 mg/kg/injection, schedule: Q01DX009 (ip), vehicle: saline) 127 % of control [5 of 6 alive]. In addition, the survivor count (dose: 80.0 mg/kg/injection, schedule: Q01DX009 (ip), vehicle: saline) was 0 of 6.

Turning to `C=C(Cl)CSCCS`, the T/C (dose: 100.0 mg/kg/injection, schedule: Q01DX009 (ip), vehicle: acetone) was 136 % of control.

`c1cc[c]([Pb]([c]2ccccc2)([c]2ccccc2)[n]2c3ccccc3c3ccccc32)cc1`: the T/C reads like this: under setting [8], 127 % of control; under setting [4], 133 % of control. The survivor count is, setting by setting: (dose: 4.12 mg/kg/injection, schedule: Q01DX009 (ip), vehicle: saline) 6 of 6; under setting [4], 0 of 6 and 2 of 6; (dose: 9.37 mg/kg/injection, schedule: Q01DX009 (ip), vehicle: saline) 0 of 6 and 2 of 6.

`O=NN(CCCl)C(=O)NC1C2CC3CC(C2)CC1C3` (stereo unspecified): where the note is “dose: 5.5 mg/kg/injection, schedule: Q04DX003 (ip), vehicle: other”, the T/C was 131 % of control.

For the compound `CS(=O)(=O)OCCCCOS(C)(=O)=O`, the survivor count is, setting by setting: (dose: 12.5 mg/kg/injection, schedule: Q01DX010 (ip), vehicle: saline) 6 of 6; (dose: 25.0 mg/kg/injection, schedule: Q01DX010 (ip), vehicle: saline) 6 of 6; (dose: 50.0 mg/kg/injection, schedule: Q01DX010 (ip), vehicle: saline) 6 of 6.

On to `O=NN(CCF)C(=O)NC12CC3CC(CC(C3)C1)C2`, for which the T/C (dose: 6.0 mg/kg/injection, schedule: Q01DX009 (ip), vehicle: Klucel (hydroxypropylcellulose) (HPC)) is 125 % of control. In addition, the survivor count reads like this: (dose: 50.0 mg/kg/injection, schedule: Q01DX009 (ip), vehicle: Klucel (hydroxypropylcellulose) (HPC)) 4 of 6; (dose: 75.0 mg/kg/injection, schedule: Q04DX003 (ip), vehicle: Klucel (hydroxypropylcellulose) (HPC)) 1 of 6; (dose: 100.0 mg/kg/injection, schedule: Q01DX009 (ip), vehicle: Klucel (hydroxypropylcellulose) (HPC)) 0 of 6; (dose: 100.0 mg/kg/injection, schedule: Q04DX003 (ip), vehicle: Klucel (hydroxypropylcellulose) (HPC)) 5 of 6; (dose: 200.0 mg/kg/injection, schedule: Q01DX009 (ip), vehicle: Klucel (hydroxypropylcellulose) (HPC)) 0 of 6; (dose: 200.0 mg/kg/injection, schedule: Q04DX003 (ip), vehicle: Klucel (hydroxypropylcellulose) (HPC)) 2 of 6.

As for `CCC1CC[N-]CC1.CCC1CC[N-]CC1.[Cl][Pt+2]([Cl])([Cl])[Cl]`, the survivor count under setting [6] was 4 of 6 and the survivor count under setting [7] was 0 of 6.

For the compound `COCOS(C)(=O)=O`, the survivor count (dose: 400.0 mg/kg/injection, schedule: Q04DX003 (ip), vehicle: saline) was 0 of 6.

For the compound `CC(=O)CC(c1ccc2c(c1)OCO2)c1c(O)c2ccccc2oc1=O` (stereo unspecified), the survivor count was 4 of 6 under setting [8]; 1 of 6 under setting [4]; 4 of 6 under setting [5]; 3 of 6 under setting [6]; 6 of 6 (dose: 25.0 mg/kg/injection, schedule: Q04DX003 (ip), vehicle: saline).

As to `CC(NSc1ccccc1[N+](=O)[O-])C(=O)O` (stereo unspecified), the survivor count under setting [1] is given as 0 of 6.

Consider `CCCCCCCCNc1ccccc1`, for which the survivor count (dose: 200.0 mg/kg/injection, schedule: Q01DX001 (ip), vehicle: saline sonified) is reported as 6 of 6.

As for `Cn1nnnc1[N-]Cc1ccccc1.[Au+].c1ccc([PH+](c2ccccc2)c2ccccc2)cc1`, under “dose: 100.0 mg/kg/injection, schedule: Q01DX001 (ip), vehicle: saline with Tween-80”, the survivor count is given as 0 of 6.

Turning to `CC1(c2ccc(Cl)s2)C(=O)N(Cl)C(=O)N1Cl` (stereo unspecified), the T/C is 125 % of control under setting [9] and 140 % of control [5 of 6 alive] (dose: 100.0 mg/kg/injection, schedule: Q01DX009 (ip), vehicle: saline with Tween-80). Further, the survivor count runs as follows: under setting [1], 2 of 6 and 4 of 6; (dose: 200.0 mg/kg/injection, schedule: Q04DX003 (ip), vehicle: water) 6 of 6.

In the case of `CC(=O)N1c2ccccc2Sc2ccc3ccc(C(=O)CCl)cc3c21`, the T/C under setting [3] was 137 % of control; the T/C under setting [9] is 142 % of control; the T/C (dose: 50.0 mg/kg/injection, schedule: Q01DX009 (ip), vehicle: saline with Tween-80) is 144 % of control.
